Data source: PubChem BioAssay AID743454 (Peter MacCallum Cancer Centre, 2014)
Here is one part, drawn at random, of about 18,000 reagents tested. In the full data, 450 (2.5%) are marked active. 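Single biological run; no consistent viability z cut-off exists, so the class columns, not z-scores, define the calls.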 Unmarked entries are inactive.

- Screen: 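Knock-downs lowering viability or raising caspase 3/7 activity in vorinostat-treated resistant cells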 (primary screen)
- Cells: human HCT116-VR colon cancer cells, selected for vorinostat resistance
- Knock-down reagent: siRNA pool against human genes, 40 nM siRNA pool
- Timing: vorinostat for 24 h, read-out about 72 h after transfection
- Conditions: vorinostat at 2.5 µM final
- Detection: 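Two measures, CellTiter-Fluor viability and luminescent caspase 3/7 activity, each as fold change against same-plate mock wells, mean of duplicates, then screen-wide robust z-score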
- Scale: viability robust z-score: higher = more viable cells than screen typical; caspase robust z-score: higher = more caspase 3/7 activity than screen typical
- Rule for the call: 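a knock-down is a hit when classed RV1 or RV2 for lowered viability, or CA1 or CA2 for caspase activation; those lethal without drug were dropped; hits were retested singly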

What is on record for ZFP91 [SID152147619]?
viability hit class: no change; caspase hit class: no change; viability robust z-score: -0.63; caspase robust z-score: -0.38

How did the screen score AVPI1 [SID135622641]?
viability hit class: no change; caspase hit class: no change; viability robust z-score: -0.97; caspase robust z-score: 0.8

Which result is listed for TEX56P [SID152153603]?
viability hit class: no change; caspase hit class: no change; viability robust z-score: 0.06; caspase robust z-score: -0.66

What is on record for KAT6B [SID135623772]?
viability hit class: no change; caspase hit class: no change; viability robust z-score: -0.68; caspase robust z-score: 0.08

What did the screen give for KRT9 [SID152151309]?
viability hit class: no change; caspase hit class: no change; viability robust z-score: 0.68; caspase robust z-score: 1

Which result is listed for SPO11 [SID135623900]?
viability hit class: no change; caspase hit class: no change; viability robust z-score: -0.98; caspase robust z-score: -0.33

For TTLL3 [SID152150772], what was measured?
viability hit class: no change; caspase hit class: no change; viability robust z-score: -2.84; caspase robust z-score: 0.23

What did the screen give for PYGB [SID152150863]?
viability hit class: no change; caspase hit class: no change; viability robust z-score: 1.36; caspase robust z-score: 3.88

For C8orf82 [SID135625122], what was measured?
viability hit class: no change; caspase hit class: no change; viability robust z-score: 1.14; caspase robust z-score: -0.55

How did the screen score TFG [SID152147395]?
viability hit class: no change; caspase hit class: no change; viability robust z-score: -1.08; caspase robust z-score: 4.33

What is on record for CHMP3 [SID135620870]?
viability hit class: no change; caspase hit class: no change; viability robust z-score: 0.42; caspase robust z-score: 0.17

For TMIE [SID152149982], what was measured?
viability hit class: no change; caspase hit class: no change; viability robust z-score: 0.2; caspase robust z-score: 0.18

For POLD2 [SID135623921], what does the deposit list?
viability hit class: no change; caspase hit class: no change; viability robust z-score: -0.37; caspase robust z-score: 1.07

What did the screen give for TRPV3 [SID134310835]?
viability hit class: no change; caspase hit class: no change; viability robust z-score: -0.86; caspase robust z-score: 3.06

With TRIM52 [SID134312218], what does the deposit list?
viability hit class: no change; caspase hit class: no change; viability robust z-score: -0.36; caspase robust z-score: 1.38

What did the screen give for ZFPM1 [SID152156436]?
viability hit class: no change; caspase hit class: no change; viability robust z-score: -1.12; caspase robust z-score: 0.75

Which result is listed for BTD [SID152153036]?
viability hit class: no change; caspase hit class: no change; viability robust z-score: 1.83; caspase robust z-score: -0.28

For NEURL1 [SID134320695], what was measured?
viability hit class: no change; caspase hit class: no change; viability robust z-score: 0.2; caspase robust z-score: -0.38

What is on record for HS3ST5 [SID134313819]?
viability hit class: no change; caspase hit class: no change; viability robust z-score: 0.73; caspase robust z-score: -0.46

Which result is listed for GPN2 [SID152153719]?
viability hit class: no change; caspase hit class: no change; viability robust z-score: -0.35; caspase robust z-score: 0.54

Which result is listed for SORD [SID152152698]?
viability hit class: no change; caspase hit class: no change; viability robust z-score: -0.44; caspase robust z-score: 1.31

For NFX1 [SID134311864], how do the results read?
viability hit class: no change; caspase hit class: no change; viability robust z-score: -0.2; caspase robust z-score: -1.03

With HECTD1 [SID152150861], what was measured?
viability hit class: no change; caspase hit class: no change; viability robust z-score: -1.45; caspase robust z-score: -0.96

What did the screen give for UPK3A [SID152149310]?
viability hit class: no change; caspase hit class: no change; viability robust z-score: 0.7; caspase robust z-score: -0.1

For PSMD1 [SID134315707], what was measured?
viability hit class: no change; caspase hit class: no change; viability robust z-score: -5.04; caspase robust z-score: -0.18

Which result is listed for DUSP22 [SID135620837]?
viability hit class: no change; caspase hit class: no change; viability robust z-score: 0.96; caspase robust z-score: 0.43

How did the screen score MDM2 [SID135620653]?
viability hit class: no change; caspase hit class: no change; viability robust z-score: 0.73; caspase robust z-score: -0.18
